Source: PubChem BioAssay AID1671190 (National Center for Advancing Translational Sciences (NCATS), 2021)
Screen size: about 580,000 compounds; about 6,100 (1.1%) were called active. Inconclusive means that the source gave no clear call. Such entries were picked first, then a sample of the others. Calls come from the whole dose curve; as a rule, active = well fitted inhibition curve with a large enough effect; inconclusive = small, poorly fitted or top-dose-only effect, or another doubt; inactive = no such curve, though single readings can be large or run the other way. A potency beside an inconclusive call is a rough fit, not a confirmed value.

Sequences of proteins named here, by UniProt entry; tags and fusion partners are left off. A change or cut given only in a name is not applied to a line headed by its entry.
UniProt P18054: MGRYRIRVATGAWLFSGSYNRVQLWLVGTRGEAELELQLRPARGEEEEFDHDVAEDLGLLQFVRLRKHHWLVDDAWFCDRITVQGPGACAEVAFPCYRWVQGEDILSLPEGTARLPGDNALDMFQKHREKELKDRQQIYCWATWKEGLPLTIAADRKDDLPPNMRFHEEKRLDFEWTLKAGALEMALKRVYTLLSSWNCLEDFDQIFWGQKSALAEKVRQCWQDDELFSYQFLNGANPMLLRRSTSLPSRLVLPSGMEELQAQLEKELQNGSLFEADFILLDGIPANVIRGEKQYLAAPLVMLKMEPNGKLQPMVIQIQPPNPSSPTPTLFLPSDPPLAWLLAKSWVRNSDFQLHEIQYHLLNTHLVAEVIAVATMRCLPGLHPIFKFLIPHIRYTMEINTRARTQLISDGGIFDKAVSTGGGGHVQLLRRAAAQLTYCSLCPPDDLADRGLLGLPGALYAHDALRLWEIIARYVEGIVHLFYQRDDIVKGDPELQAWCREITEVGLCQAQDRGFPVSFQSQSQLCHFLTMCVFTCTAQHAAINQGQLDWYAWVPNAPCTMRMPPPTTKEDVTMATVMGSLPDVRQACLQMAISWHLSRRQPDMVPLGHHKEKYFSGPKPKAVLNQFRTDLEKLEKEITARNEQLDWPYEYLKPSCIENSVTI

Molecular target: Polyunsaturated fatty acid lipoxygenase ALOX12 (Homo sapiens) (UniProt P18054)
Assay: Primary qHTS assay for inhibitors of human arachidonate 12S-lipoxygenase (ALOX12): Round 2
Conditions: purified 12hLO, xylenol orange hydroperoxide absorbance; activity change, negative = inhibition: at 108 µM (top of the series) unless noted
Procedure, shortened: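 Purified human 12hLO (150 nM final) in 25 mM Hepes, 0.01% Triton X-100, pH 7.0 was preincubated 15 min at room temperature with compound. Then 40 uM arachidonic acid was added, 30 min. Hydroperoxide was read by Fe-XO absorbance ratio 573/405 nm.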
% is set by controls: 0 for no effect and ±100 for the full control effect; potency is the fitted concentration of half-maximal effect.

Row | Structure (SMILES) | activity change, negative = inhibition | Potency
1 | Cc1ccc(-c2cc(C(=O)O)c3cc(Br)ccc3n2)cc1 | inactive: -2.84% | –
2 | CCOC(=O)COc1c(Cl)cc(C2NC(=S)NC(c3ccccc3)=C2C(C)=O)cc1OC (stereo unspecified) | – | inconclusive: 50.1 µM [inhibitor, partial curve, poor fit]
3 | Cc1cc(NC(=O)CCS(=O)(=O)c2cc(Br)cc3c2N(C(=O)C2CC2)CC3)ccc1Br | – | inconclusive: 141 µM [inhibitor, partial curve, poor fit]
4 | COc1cc(C(=O)N[C@@H](Cc2c[nH]c3ccccc23)C(=O)O)cc(OC)c1OC | – | inconclusive: 63.1 µM [inhibitor, partial curve, poor fit]
5 | COc1ccc(CNC(=O)C[C@@H]2CCNC[C@@H]2Cc2cc(CSc3ccccc3)on2)cc1 | – | inconclusive: 15.8 µM [inhibitor, full curve, poor fit]
6 | O=[N+]([O-])c1ccc(NN=Cc2cc(Br)ccc2O)nc1 | – | inconclusive: 89.1 µM [inhibitor, partial curve, poor fit]
7 | Cc1cccc(C(=O)N2C[C@@H](CO)[C@H](c3nc(C4CC4)no3)C2)n1 | inactive: -0.489% | –
8 | O=C(NC[C@H]1Cn2c(-c3ccc(Cl)cc3)cnc2CO1)Nc1ccccc1 | inactive: 74.5% [at 176 µM] | –
9 | Cc1ccc(-n2ncc(C(=O)N3CCCC3)c2-n2cccc2)cc1 | – | inconclusive: 112 µM [inhibitor, single point]
10 | Cc1ccc(-c2nnc(N3CCN(C(=O)COc4ccccc4)CC3)c3ccccc23)cc1 | inactive: -21.5% | –
11 | C/C(OC(=O)C12CC3CC(CC(C3)C1)C2)=C1/CCOC1=O | inactive: -2.12% | –
12 | Cc1onc(-c2ccccc2)c1C(=O)N1CCCc2ccccc21 | inactive: -27.9% | –
13 | CCc1cc2c(=O)c(-c3ccc(F)cc3)c(C)oc2cc1OCC(=O)O | – | inconclusive: 17.8 µM [inhibitor, partial curve, poor fit]
14 | O=C(c1ccccc1OCC1CCCN(Cc2nccs2)C1)N1CCCCC1 (stereo unspecified) | inactive: 6.69% | –
15 | O=[N+]([O-])c1ccc(N2N=C(c3ccco3)CC2c2ccccc2)cc1 (stereo unspecified) | – | inconclusive: 28.2 µM [inhibitor, partial curve]
16 | O=C(NC1CCCCC1)N(c1ccccc1)c1nnc(-c2cccc([N+](=O)[O-])c2)s1 | – | inconclusive: 89.1 µM [inhibitor, single point]
17 | CCCCn1c(N)c(N(CC(C)C)C(=O)C2CCN(S(=O)(=O)c3ccc(C)c(C)c3)CC2)c(=O)[nH]c1=O | inactive: -23.7% | –
18 | COc1ccc(C2C(C#N)=C(N)Oc3n[nH]c(C)c32)c(OCc2ccccc2Cl)c1 (stereo unspecified) | – | inconclusive: 31.6 µM [inhibitor, partial curve, poor fit]
19 | CCc1cccc(-n2c(C)nc3c(cnn3-c3ccc(C)c(C)c3)c2=O)c1 | inactive: -27% | –
20 | CC1(C(=O)NCc2ccccc2)CN(Cc2ccccc2)Cc2ccc(N3CCOCC3)nc21 (stereo unspecified) | inactive: 52.7% | –
21 | CN(Cc1ccc(-c2ccc(Cl)cc2)o1)C(=O)CSc1nnc(C2CC2)n1Cc1ccco1 | – | active: 15.8 µM
22 | CCC(=O)c1cc(Cl)ccc1OCC(=O)Nc1ccccc1N1CCCC1=O | – | inconclusive: 89.1 µM [inhibitor, partial curve, poor fit]

Among those listed so far, these have a halogen.
Row | Structure (SMILES) | activity change, negative = inhibition | Potency
1 | Cc1ccc(-c2cc(C(=O)O)c3cc(Br)ccc3n2)cc1 | inactive: -2.84% | –
2 | CCOC(=O)COc1c(Cl)cc(C2NC(=S)NC(c3ccccc3)=C2C(C)=O)cc1OC (stereo unspecified) | – | inconclusive: 50.1 µM [inhibitor, partial curve, poor fit]
3 | Cc1cc(NC(=O)CCS(=O)(=O)c2cc(Br)cc3c2N(C(=O)C2CC2)CC3)ccc1Br | – | inconclusive: 141 µM [inhibitor, partial curve, poor fit]
6 | O=[N+]([O-])c1ccc(NN=Cc2cc(Br)ccc2O)nc1 | – | inconclusive: 89.1 µM [inhibitor, partial curve, poor fit]
8 | O=C(NC[C@H]1Cn2c(-c3ccc(Cl)cc3)cnc2CO1)Nc1ccccc1 | inactive: 74.5% [at 176 µM] | –
13 | CCc1cc2c(=O)c(-c3ccc(F)cc3)c(C)oc2cc1OCC(=O)O | – | inconclusive: 17.8 µM [inhibitor, partial curve, poor fit]
18 | COc1ccc(C2C(C#N)=C(N)Oc3n[nH]c(C)c32)c(OCc2ccccc2Cl)c1 (stereo unspecified) | – | inconclusive: 31.6 µM [inhibitor, partial curve, poor fit]
21 | CN(Cc1ccc(-c2ccc(Cl)cc2)o1)C(=O)CSc1nnc(C2CC2)n1Cc1ccco1 | – | active: 15.8 µM
22 | CCC(=O)c1cc(Cl)ccc1OCC(=O)Nc1ccccc1N1CCCC1=O | – | inconclusive: 89.1 µM [inhibitor, partial curve, poor fit]

Another view of part of the listing above:
Row	Structure (SMILES)	activity change, negative = inhibition	Potency
7	Cc1cccc(C(=O)N2C[C@@H](CO)[C@H](c3nc(C4CC4)no3)C2)n1	inactive: -0.489%	–
22	CCC(=O)c1cc(Cl)ccc1OCC(=O)Nc1ccccc1N1CCCC1=O	–	inconclusive: 89.1 µM [inhibitor, partial curve, poor fit]

Continuation:

Row | Structure (SMILES) | activity change, negative = inhibition | Potency
23 | Cc1ccc(NC(=O)/C(=C\c2ccco2)NC(=O)c2ccco2)cc1 | – | inconclusive: 79.4 µM [inhibitor, partial curve, poor fit]
24 | COCCN(CC(N)=O)S(=O)(=O)c1ccc(F)cc1 | – | inconclusive: 39.8 µM [inhibitor, partial curve, poor fit]
25 | Cc1csc(NC(=O)CCc2nc3ccccc3s2)n1 | inconclusive: -44.1% [inhibitor] | –
26 | Cc1cc(C(O)c2ncc(-c3ccccc3F)[nH]2)ccc1F (stereo unspecified) | inactive: -4.18% | –
27 | O=C(c1ccccc1)c1c(-c2ccccc2)[nH]n(-c2ccccc2)c(=O)c1=O | – | inconclusive: 31.6 µM [inhibitor, partial curve, poor fit]
28 | CCOc1ccc(-n2nc3c(Cl)nnc(C)c3c2C)cc1 | – | inconclusive: 39.8 µM [inhibitor, partial curve, poor fit]
29 | COc1ccc(OC2CCN(C(C)=O)CC2)c(C(=O)NCc2cc3ccccc3[nH]2)c1 | – | inconclusive: 35.5 µM [inhibitor, partial curve, poor fit]
30 | Cc1[nH]c2ccccc2c1C(=O)C(C)Oc1ccc(Cl)c2ccccc12 (stereo unspecified) | – | inconclusive: 44.7 µM [inhibitor, partial curve, poor fit]
31 | Nc1ccc(C(=O)OC2CCCCC2)cc1 | – | inconclusive: 141 µM [inhibitor, single point]
32 | S=c1[nH]ncn1/N=C/c1ccc(N2CCOCC2)cc1 | – | inconclusive: 35.5 µM [inhibitor, partial curve, poor fit]
33 | CCCCC1OC2(C)OC(=N)C1(C#N)C(C#N)(C#N)C2c1ccccc1 (stereo unspecified) | – | inconclusive: 70.8 µM [inhibitor, single point]
34 | COc1cccc(CNCC2(CO)C[C@@H](O)[C@@H](O)C2)c1 (stereo partly specified) | – | inconclusive: 31.6 µM [inhibitor, full curve]
35 | Cc1ccc(S(=O)(=O)c2cc(OC(=O)c3ccco3)ccc2OC(=O)c2ccco2)cc1 | inactive: -7.44% | –
36 | CCn1c2ccccc2c2cc(CN3CCN(Cc4ccccc4Cl)CC3)ccc21 | – | inconclusive: 2.24 µM [inhibitor, full curve]
37 | COC(=O)c1ccccc1NC(=O)C1=C(c2ccccc2)S(=O)(=O)CCO1 | inactive: -4.91% | –
38 | Cc1ccc(CN2C(=O)NC3(CCCN(C(=O)c4ccc(F)c(Cl)c4)C3)C2=O)cc1 (stereo unspecified) | – | inconclusive: 10 µM [inhibitor, full curve]
39 | CCOc1ccc(C(=O)NC(=S)N(Cc2ccccc2)Cc2ccccc2)cc1 | – | inconclusive: 44.7 µM [inhibitor, partial curve, poor fit]
40 | CCC1(CC)Cc2ccccc2-c2[nH]c(=S)[nH]c(=O)c21 | – | inconclusive: 112 µM [inhibitor, single point]
41 | Cc1cc(C(=O)N(C)CC2CCCN(CCc3ccc(F)cc3)C2)c(C)o1 (stereo unspecified) | – | inconclusive: 112 µM [inhibitor, partial curve, poor fit]
42 | CNc1oc(/C=C/c2cccc(OC)c2)nc1C#N | – | inconclusive: 112 µM [inhibitor, partial curve, poor fit]
43 | Cc1cc(C)cc(-n2cc[nH]c2=S)c1 | – | inconclusive: 50.1 µM [inhibitor, partial curve, poor fit]
44 | Cc1n[nH]c2ccc([N+](=O)[O-])cc2c1=O | inactive: -2.1% | –

Row | Structure (SMILES) | activity change, negative = inhibition | Potency
45 | Cc1scc(C(=O)NCC2CCCCC2)c1C | – | active: 15.8 µM
46 | NC1=NC2(CCC(c3ccccc3)CC2)n2c(nc3ccccc32)N1 (stereo unspecified) | – | inconclusive: 89.1 µM [inhibitor, partial curve, poor fit]
47 | CCc1cc(=O)n(CC(=O)Nc2ccc(N(C)C)cc2)c(-c2ccccc2)n1 | – | inconclusive: 6.31 µM [inhibitor, partial curve, poor fit]
48 | COc1ccc(COc2ccsc2C(=O)Nc2ccc(Cl)cc2)cc1 | inactive: -23.7% | –
49 | CCN(CC(=O)Nc1c(F)cccc1F)C(=O)C1CCN(c2ncnc3sc(C)c(C)c23)CC1 | – | inconclusive: 89.1 µM [inhibitor, single point]
50 | O=C(CC1C(=O)NCCN1C(=O)c1ccc(Cl)cc1)Nc1ccc(F)cc1 (stereo unspecified) | – | inconclusive: 50.1 µM [inhibitor, partial curve, poor fit]
51 | COc1ccc(C2C=C(c3ccccc3)Nc3nc(CCCO)nn32)cc1 (stereo unspecified) | inactive: -2.01% | –
52 | Cc1nc(=O)c(-c2ccccc2)c(C)n1-c1ccc(O)c(C(=O)O)c1 | – | inconclusive: 44.7 µM [inhibitor, partial curve, poor fit]
53 | O=C(Cn1cnnn1)Nc1cccc(S(=O)(=O)N2CCCCC2)c1 | – | inconclusive: 112 µM [inhibitor, single point]
54 | CCC(C)NC(=O)c1cc(SC)ccc1C (stereo unspecified) | – | inconclusive: 100 µM [inhibitor, single point]
55 | COc1ccc(/C=C(/C#N)C(=O)Nc2ccccc2C(=O)O)cc1O | inactive: -69.2% | –
56 | CCN(C(=O)/C=C/c1cc(OC)c(OC)c(OC)c1)C1CCCCC1 | inactive: -31.8% | –
57 | Nn1c(SCc2ccccc2F)nnc1-c1ccncc1 | – | inconclusive: 100 µM [inhibitor, single point]
58 | Cc1ccc(-c2nc3c4ccccc4[nH]c(=O)n3n2)cc1 | – | inconclusive: 2.82 µM [inhibitor, full curve, poor fit]
59 | CCc1nc2ccc(C(=O)N3CCN(c4cccc(C)c4C)CC3)cc2nc1CC | – | inconclusive: 63.1 µM [inhibitor, partial curve, poor fit]
60 | COc1ccc2c(c1)O/C(=C\c1sccc1C)C2=O | – | inconclusive: 50.1 µM [inhibitor, partial curve, poor fit]
61 | CCOc1ccc(-c2cc(OC(=O)c3ccc(OC)cc3)c3c(C)oc(C)c3c(=O)c2)cc1 | inactive: 4.68% | –
62 | CC1(Oc2ccccc2-c2ccno2)CCN(Cc2ccc(-c3ccccc3)o2)C1 (stereo unspecified) | – | inconclusive: 39.8 µM [inhibitor, partial curve, poor fit]
63 | CC(C)NC(=O)Cn1c(=O)n(-c2ccccc2)c(=O)c2sccc21 | – | inconclusive: 35.5 µM [inhibitor, partial curve, poor fit]
64 | CC1=C[C@@H](CN2CCN(c3ncccn3)CC2)[C@H](C(C)C)C[C@H]1Cc1nnc(COc2ccc(F)cc2)o1 | inactive: -29.5% | –
65 | O=C(NCCC1=CCCCC1)c1ccc(Br)o1 | – | inconclusive: 44.7 µM [inhibitor, partial curve, poor fit]
66 | CCN(C(=O)c1coc(=O)c(Br)c1)c1ccc2c(c1)OCO2 | – | inconclusive: 44.7 µM [inhibitor, partial curve, poor fit]
